Assay results reported in PubChem BioAssay AID1487 (National Center for Advancing Translational Sciences (NCATS), 2009).
Some of the results follow. Further columns of the screen follow, without active or inactive calls. Compounds called inactive in the main read-out are mostly missing here. Potencies come from curve fits of mixed quality, noted in brackets.

Assay: qHTS Assay for Modulators of Lamin A Splicing
Conditions: HeLa LMNA splicing GFP/RFP minigene ratio, 48 h
Outline: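 S3 HeLa stable clones carrying a lamin A-EGFP splicing minigene plus DsRed2 were seeded at 600 cells/well in Opti-MEM with 2% FBS, pin-dosed and incubated 48 h at 37°C. Acumen cytometry (488 nm) gave the GFP/RFP total-intensity ratio.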

[1] = measured here: GFP splicing reporter channel
[2] = measured here: RFP viability control channel

SMILES	AC50 [1]	AC50 [2]
CC1=Nc2cc(C(=O)NC3CCCC3)ccc2Sc2ccc(Cl)cc21	0.562 µM [rising, full curve, poor fit]	1.26 µM [rising, partial curve]
COc1ccc(NS(=O)(=O)c2ccc(C)c(NC(=O)c3ccc(C)c(S(=O)(=O)N4CCOCC4)c3)c2)cc1	12.6 µM [rising, single point]	14.1 µM [rising, partial curve]
CC(C)(CNS(C)(=O)=O)SCc1ccc(Cl)cc1	35.5 µM [falling, single point]	
CC(=O)c1cccc(N(CC(=O)NCC2CCCO2)C(=O)CCC(=O)Nc2cc(C)on2)c1 (stereo unspecified)	20 µM [rising, partial curve, poor fit]	
O=C(NC1CC1)C1CCN(C2CCN(C(=O)/C=C/c3cccs3)CC2)CC1	1.58 µM [falling, partial curve]	5.62 µM [falling, single point]
CCC(c1nnnn1C1CCCC1)N(Cc1cccs1)Cc1cc2cccc(C)c2[nH]c1=O (stereo unspecified)	12.6 µM [rising, single point]	15.8 µM [rising, single point]
Cc1ccc(Cl)c(OCC(=O)Nc2ccc3c(c2)OCCO3)c1		20 µM [rising, single point]
CC(C)CN(CC(C)C)S(=O)(=O)c1ccc(C(=O)Nc2sc3c(c2C(N)=O)CCN(C(C)C)C3)cc1	14.1 µM [falling, single point]	28.2 µM [falling, single point]
O=C(CNc1ccc(Cl)cc1)c1ccc(Br)cc1		11.2 µM [rising, partial curve]
COc1cc(CNc2cc(C)ccc2C)cc(OC)c1OC		17.8 µM [rising, single point]
CC(C)Nc1oc(Cc2cccc3ccccc23)nc1C#N	22.4 µM [rising, partial curve, poor fit]	20 µM [rising, partial curve]
COc1cccc(C(=O)Nc2c3c(nn2-c2ccc(C)cc2C)CS(=O)(=O)C3)c1OC		15.8 µM [rising, partial curve, poor fit]
COc1cc(N=c2c([N+](=O)[O-])nn(-c3ccc4c(c3)OCCO4)n2O)cc(OC)c1		4.47 µM [rising, full curve]
Cc1cccc(N2CCN(c3ncnc4c3cnn4-c3ccc(Cl)cc3)CC2C)c1 (stereo unspecified)	20 µM [falling, partial curve, poor fit]	
O=C(Cn1c(-c2cccs2)cc2cc(F)ccc21)N1CCCCC1		14.1 µM [rising, single point]
CCN(CC)S(=O)(=O)c1cccc(-c2nnc(SCCOc3ccccc3C)o2)c1	15.8 µM [rising, partial curve, poor fit]	12.6 µM [rising, partial curve]
O=C1c2cccc3cccc(c23)C(=O)N1OS(=O)(=O)c1ccc(Br)cc1		1.78 µM [rising, partial curve, poor fit]
COc1cc(C(C(=O)NC2CCCCC2)N(Cc2ccco2)C(=O)c2cnccn2)cc(OC)c1OC (stereo unspecified)		0.00447 µM [falling, full curve, poor fit]
CCOC(=O)NC1(Nc2ccc(Cl)cn2)Oc2ccccc2O1		20 µM [rising, single point]
COc1cccc(N2CCN(c3ncnc4c3[nH]c3ccc(F)cc34)CC2C)c1 (stereo unspecified)	11.2 µM [falling, partial curve]	10 µM [falling, partial curve]
CN(C(=O)c1cccnc1)c1nnc(-c2cccnc2)s1	0.0398 µM [falling, full curve, poor fit]	
O=C(NCC1CCCO1)c1sc2cc(Cl)ccc2c1Cl (stereo unspecified)	35.5 µM [rising, single point]	
CC(=C\c1ccccc1)/C=C1/SC(=S)N(C(C(=O)O)C(C)C)C1=O (stereo unspecified)	8.91 µM [falling, full curve, poor fit]	7.94 µM [falling, full curve, poor fit]
CCOC(=O)c1c(C)nn(Cc2cccc(Cl)c2)c1N	14.1 µM [rising, partial curve, poor fit]	15.8 µM [rising, partial curve]
CCOc1ccc(-c2c(=O)n(OCc3ccc([N+](=O)[O-])cc3)c3ccccc3[n+]2[O-])cc1		10 µM [rising, partial curve]
O=C(Nc1c(C(=O)N2CCN(c3ccccc3)CC2)oc2ccccc12)c1ccccc1F		0.0891 µM [rising, full curve, poor fit]
COc1cc(/C=N/OCC(=O)NC23CC4CC(CC(C4)C2)C3)ccc1OCc1ccccc1		35.5 µM [rising, single point]

Entries of single compounds from above:
`Cc1cccc(N2CCN(c3ncnc4c3cnn4-c3ccc(Cl)cc3)CC2C)c1` (stereo unspecified) is listed as AC50 [1]: 20 µM [falling, partial curve, poor fit]
`CN(C(=O)c1cccnc1)c1nnc(-c2cccnc2)s1` is listed as AC50 [1]: 0.0398 µM [falling, full curve, poor fit]

Next part

SMILES	AC50 [1]	AC50 [2]
COc1ccccc1C(=O)Nc1ccc(C(=O)/C=C/c2cccs2)cc1	31.6 µM [falling, partial curve]	35.5 µM [falling, single point]
O=C(N/N=C/c1ccc([N+](=O)[O-])o1)c1cccc(S(=O)(=O)N2CCOCC2)c1	17.8 µM [rising, partial curve, poor fit]	
CCCC1=Nc2cc(C(=O)NCCCOCC)ccc2Sc2ccccc21	14.1 µM [rising, partial curve]	
Cc1cc(C(=O)CSc2n[nH]c(N)n2)c(C)n1-c1ccc(F)cc1	22.4 µM [rising, single point]	31.6 µM [rising, single point]
COc1ccccc1NS(=O)(=O)c1ccc(Cl)c(NC(=O)c2sc3cc(Cl)ccc3c2Cl)c1	0.0891 µM [rising, full curve, poor fit]	
O=C(CCCCC(=O)N1CCN(c2ccccc2)CC1)N1CCN(c2ccccc2)CC1		14.1 µM [rising, single point]
CC(=O)/C=C(\C)Nc1c(C)n(C)n(-c2ccccc2)c1=O	0.01 µM [rising, full curve, poor fit]	0.0126 µM [rising, full curve, poor fit]
O=C(COc1ccc2ccccc2c1Br)N1CCN(c2ccccn2)CC1	12.6 µM [rising, single point]	15.8 µM [rising, partial curve]
CC1CCCC(NC(=O)COC(=O)CSc2ccc3ccccc3c2)C1C (stereo unspecified)	20 µM [rising, single point]	
Cc1ccc(S(=O)(=O)N2CCCCC2)cc1NC(=O)CNCc1ccco1	0.631 µM [falling, partial curve]	5.01 µM [falling, partial curve, poor fit]
O=C(/C=C/c1cccc([N+](=O)[O-])c1)N1CCN(c2ccc(F)cc2)CC1	35.5 µM [rising, single point]	28.2 µM [rising, single point]
COc1ccc(Nc2ccc(S(=O)(=O)N3CCCCC3)cc2[N+](=O)[O-])cc1OC	15.8 µM [rising, partial curve]	15.8 µM [rising, partial curve]
C=CCc1ccc(OCCCCCN2CCOCC2)c(OC)c1		0.501 µM [falling, full curve, poor fit]
O=C(NCc1ccco1)c1cccc(NC(=O)c2ccco2)c1	8.91 µM [rising, partial curve]	10 µM [rising, partial curve]
CCN(Cc1ccccc1)S(=O)(=O)c1cc(C(=O)NCC2CCCCC2)ccc1OC		7.08 µM [rising, partial curve, poor fit]
CCOC(=O)c1c(NC(=O)c2ccccc2N(C)S(=O)(=O)c2ccccc2)sc2c1CCCC2		1.58 µM [rising, full curve, poor fit]
Cc1nn(C)c(C(=O)NN)c1Cl	1.26 µM [rising, partial curve, poor fit]	
CCOC(=O)c1cnc(-n2nc(C)cc2C)nc1Nc1ccc(N(C)C)cc1	7.94 µM [rising, partial curve]	7.94 µM [rising, partial curve]
N#C/C=C\Oc1ccc(Cl)cc1N	7.94 µM [rising, partial curve]	7.08 µM [rising, full curve]
Cc1cc(=O)n2[nH]c(-c3ccc(C(C)(C)C)cc3)cc2n1	14.1 µM [falling, partial curve]	15.8 µM [rising, partial curve]
O=C(Oc1cccc(O)c1)C1CCCCC1	0.0562 µM [falling, partial curve, poor fit]	
O=C(Cc1ccc2c(c1)CCCC2)Nc1ccc2ccccc2c1		0.0562 µM [rising, full curve, poor fit]
COC(=O)c1c(NC(=O)C2(C)Cc3ccccc3C(=O)O2)sc2c1CCCC2 (stereo unspecified)		12.6 µM [rising, partial curve]
COc1ccc2oc(=O)c(-c3nc(-c4ccc(C)c(C)c4)cs3)cc2c1	10 µM [rising, partial curve]	
COc1ccc(C2SCCN2C(=S)Nc2ccc(Cl)cc2)cc1 (stereo unspecified)	20 µM [rising, single point]	14.1 µM [rising, partial curve, poor fit]
OC(CNCc1cccc(Cl)c1)c1ccccc1 (stereo unspecified)	4.47 µM [falling, full curve]	7.94 µM [falling, full curve, poor fit]

An excerpt of these results, comma-delimited:
SMILES,AC50 [1],AC50 [2]
CC(C)(CNS(C)(=O)=O)SCc1ccc(Cl)cc1,"35.5 µM [falling, single point]",
CC(C)CN(CC(C)C)S(=O)(=O)c1ccc(C(=O)Nc2sc3c(c2C(N)=O)CCN(C(C)C)C3)cc1,"14.1 µM [falling, single point]","28.2 µM [falling, single point]"
CCOC(=O)c1cnc(-n2nc(C)cc2C)nc1Nc1ccc(N(C)C)cc1,"7.94 µM [rising, partial curve]","7.94 µM [rising, partial curve]"
